The list is a part of this screen's results and no random one: it covers a few groups of compounds. Not every dose and run of a compound is shown. T/C gives the treated animals as a percentage of the vehicle group. Some doses have a count of surviving animals in place of a T/C: the source files T/C as zero there, which appears to mark a toxic dose or a test without result, not a measured value. Some doses without a T/C left all or most animals alive at the check, yet need not have been tolerated: survival well below the control is almost never listed, so the zero probably covers shortened survival too. Counts of survivors are from the toxicity check (mostly the fifth day) where no day follows; animals may have died later. Schedules are NCI's codes, taken here to give the interval after Q, in days (D) or hours (H), and the number of doses after X. For survival time, this PubChem deposit counts one and a half times the control or more as active, and values a quarter to a half above the control carry no call in these data; other NCI protocols may use other cut-offs. Some T/C values are followed by the survivors on the day toxicity was checked, most often the fifth; where neither a count nor a note follows, no animal had died by that day. Some entries hold several experiments; the results are listed from low to high. Some T/C values are marked as having no survivor count here; that says nothing about deaths at the dose.

For 12 compounds, T/C and survivor count results are on record in PubChem BioAssay AID330 (DTP/NCI, 2004).

The test has as its system P388 leukemia ip, CD2F1 mice, survival T/C. The experiment in a line: NCI In Vivo Anticancer Drug Screen. Data for tumor model P388 Leukemia (intraperitoneal) in CD2F1 (CDF1) mice. Conditions: T/C endpoint: median survival time, higher T/C = longer survival.
The mark [1] stands for this setting: dose: 50.0 mg/kg/injection, schedule: Q01DX001 (ip), vehicle: Klucel (hydroxypropylcellulose) (HPC).
Where [2] appears, read: dose: 100.0 mg/kg/injection, schedule: Q01DX001 (ip), vehicle: Klucel (hydroxypropylcellulose) (HPC).
[3] abbreviates: dose: 200.0 mg/kg/injection, schedule: Q01DX001 (ip), vehicle: Klucel (hydroxypropylcellulose) (HPC).
Setting [4] is: dose: 50.0 mg/kg/injection, schedule: Q01DX009 (ip), vehicle: saline with Tween-80.
Where [5] appears, read: dose: 100.0 mg/kg/injection, schedule: Q01DX009 (ip), vehicle: saline with Tween-80.
[6] abbreviates: dose: 50.0 mg/kg/injection, schedule: Q01DX005 (ip), vehicle: saline with Tween-80.
The mark [7] stands for this setting: dose: 100.0 mg/kg/injection, schedule: Q01DX005 (ip), vehicle: saline with Tween-80.
The mark [8] stands for this setting: dose: 200.0 mg/kg/injection, schedule: Q01DX005 (ip), vehicle: saline with Tween-80.
Where [9] appears, read: dose: 100.0 mg/kg/injection, schedule: Q04DX003 (ip), vehicle: Klucel (hydroxypropylcellulose) (HPC).
Where [10] appears, read: dose: 200.0 mg/kg/injection, schedule: Q04DX003 (ip), vehicle: Klucel (hydroxypropylcellulose) (HPC).
[11] abbreviates: dose: 400.0 mg/kg/injection, schedule: Q04DX003 (ip), vehicle: Klucel (hydroxypropylcellulose) (HPC).

As to `C1NNCC12CNNC2.O=[N+]([O-])c1cc([N+](=O)[O-])c(O)c([N+](=O)[O-])c1`, the T/C by setting is: under setting [1], 100 % of control [survivor count not shown]; under setting [2], 100 % of control [survivor count not shown]; under setting [3], 99 % of control [survivor count not shown].
In the case of `CN(C)C(=O)Oc1ccc(/C=N/NC(N)=S)nc1`, the T/C runs as follows: under setting [4], 145 % of control; under setting [5], 146 % of control. Moreover, the survivor count (dose: 200.0 mg/kg/injection, schedule: Q01DX009 (ip), vehicle: saline with Tween-80) is on record as 4 of 6.
In the case of `NC(C(=O)O)c1cccc(N(CCCl)CCCl)c1` (centres undefined), the T/C under setting [1] is 135 % of control, the T/C under setting [2] is 135 % of control and the T/C under setting [3] is 145 % of control.
Regarding `CC(C)([N+](=O)[O-])C(C)([N+](=O)[O-])[N+](=O)[O-]`, the T/C runs as follows: (dose: 15.0 mg/kg/injection, schedule: Q01DX005 (ip), vehicle: saline with Tween-80) 100 % of control; (dose: 30.0 mg/kg/injection, schedule: Q01DX005 (ip), vehicle: saline with Tween-80) 100 % of control; (dose: 60.0 mg/kg/injection, schedule: Q01DX005 (ip), vehicle: saline with Tween-80) 91 [5 of 6 alive] and 104 % of control. In addition, the survivor count is 0 of 6 (dose: 120.0 mg/kg/injection, schedule: Q01DX005 (ip), vehicle: saline with Tween-80) and 0 of 6 (dose: 240.0 mg/kg/injection, schedule: Q01DX005 (ip), vehicle: saline with Tween-80).
Regarding `O=C1CN(CCCl)CC(=O)N2Cc3ccccc3CN12`, the T/C under setting [6] was 99 % of control, the T/C under setting [7] was 111 % of control and the T/C under setting [8] was 111 % of control [4 of 5 alive].
Turning to `CCOP(=O)(O)CC.[Cr]`, the T/C reads like this: under setting [9], 86 % of control [survivor count not shown]; under setting [10], 86 % of control [survivor count not shown]; under setting [11], 87 % of control [survivor count not shown].
`O[C@H](CNCCCl)[C@@H](O)CNCCCl`: the T/C by setting is: (dose: 0.29 mg/kg/injection, schedule: Q01DX009 (ip), vehicle: saline) 122 % of control; (dose: 0.44 mg/kg/injection, schedule: Q01DX009 (ip), vehicle: saline) 127 % of control; (dose: 0.66 mg/kg/injection, schedule: Q01DX009 (ip), vehicle: saline) 136 % of control; (dose: 0.88 mg/kg/injection, schedule: Q04DX003 (ip), vehicle: saline) 119 % of control; (dose: 1.0 mg/kg/injection, schedule: Q01DX009 (ip), vehicle: saline) 150 % of control; (dose: 1.32 mg/kg/injection, schedule: Q04DX003 (ip), vehicle: saline) 121 % of control. Further, the T/C is, setting by setting: (dose: 1.4 mg/kg/injection, schedule: Q01DX009 (ip), vehicle: saline) 168 % of control; (dose: 2.0 mg/kg/injection, schedule: Q04DX003 (ip), vehicle: saline) 119 % of control; (dose: 2.2 mg/kg/injection, schedule: Q01DX009 (ip), vehicle: saline) 172 % of control; (dose: 3.0 mg/kg/injection, schedule: Q04DX003 (ip), vehicle: saline) 140 % of control; (dose: 3.3 mg/kg/injection, schedule: Q01DX009 (ip), vehicle: saline) 190 % of control; (dose: 5.0 mg/kg/injection, schedule: Q01DX009 (ip), vehicle: saline) 200 % of control. Also, the T/C runs as follows: (dose: 16.5 mg/kg/injection, schedule: Q01DX009 (ip), vehicle: saline) 225 % of control; (dose: 25.0 mg/kg/injection, schedule: Q01DX009 (ip), vehicle: saline) 120 % of control; (dose: 37.5 mg/kg/injection, schedule: Q01DX009 (ip), vehicle: saline) 90 % of control.
For the compound `O=P1(Cl)N(Cc2ccc(Cl)cc2)CCCN1Cc1ccc(Cl)cc1`, the T/C by setting is: (dose: 25.0 mg/kg/injection, schedule: Q01DX005 (ip), vehicle: Klucel (hydroxypropylcellulose) (HPC)) 93 % of control; (dose: 50.0 mg/kg/injection, schedule: Q01DX005 (ip), vehicle: Klucel (hydroxypropylcellulose) (HPC)) 104 % of control; (dose: 100.0 mg/kg/injection, schedule: Q01DX005 (ip), vehicle: Klucel (hydroxypropylcellulose) (HPC)) 112 % of control; (dose: 200.0 mg/kg/injection, schedule: Q01DX005 (ip), vehicle: Klucel (hydroxypropylcellulose) (HPC)) 109 % of control.
On to `O=[N+]([O-])C1C(O)C(O)C([N+](=O)[O-])C(O)C1O` (centres undefined), for which the T/C by setting is: (dose: 3.12 mg/kg/injection, schedule: Q01DX005 (ip), vehicle: saline with Tween-80) 96 and 97 % of control; (dose: 6.25 mg/kg/injection, schedule: Q01DX005 (ip), vehicle: saline with Tween-80) 97 and 98 % of control; (dose: 12.5 mg/kg/injection, schedule: Q01DX005 (ip), vehicle: saline with Tween-80) 98 and 99 % of control; (dose: 25.0 mg/kg/injection, schedule: Q01DX005 (ip), vehicle: saline with Tween-80) 97 and 99 % of control; (dose: 25.0 mg/kg/injection, schedule: Q04DX003 (ip), vehicle: Klucel (hydroxypropylcellulose) (HPC)) 100 % of control [5 of 6 alive]; under setting [6], 101 % of control [4 of 5 alive]. Moreover, the T/C runs as follows: (dose: 50.0 mg/kg/injection, schedule: Q04DX003 (ip), vehicle: Klucel (hydroxypropylcellulose) (HPC)) 94 % of control; under setting [7], 114 % of control; under setting [9], 88 and 97 % of control [4 of 6 alive]. The survivor count reads like this: under setting [8], 5 of 5; under setting [10], 5 of 6; under setting [11], 1 of 6.
On to `C1CN1.O=C(O)CCSCNc1ncnc2c1ncn2C1OC2COP(=O)(O)OC2C1O` (centres undefined), for which the T/C (dose: 5.0 mg/kg/injection, schedule: Q04DX002 (ip), vehicle: saline) is 118 % of control; the T/C (dose: 10.0 mg/kg/injection, schedule: Q04DX002 (ip), vehicle: saline) is 112 % of control [5 of 6 alive]; the T/C (dose: 20.0 mg/kg/injection, schedule: Q04DX002 (ip), vehicle: saline) was 112 % of control. Moreover, the survivor count (dose: 100.0 mg/kg/injection, schedule: Q04DX002 (ip), vehicle: saline) is 0 of 6; the survivor count (dose: 200.0 mg/kg/injection, schedule: Q04DX002 (ip), vehicle: saline) is recorded as 1 of 6; the survivor count (dose: 400.0 mg/kg/injection, schedule: Q04DX002 (ip), vehicle: saline) is 0 of 6.
With `ClCCN(CCCl)c1cccc(CN2CCCC2)c1.O=[N+]([O-])c1cc([N+](=O)[O-])c(O)c([N+](=O)[O-])c1`, the T/C by setting is: (dose: 12.5 mg/kg/injection, schedule: Q01DX009 (ip), vehicle: saline with Tween-80) 92 % of control [survivor count not shown]; (dose: 25.0 mg/kg/injection, schedule: Q01DX009 (ip), vehicle: saline with Tween-80) 88 % of control [survivor count not shown]; under setting [4], 126 % of control [survivor count not shown]; under setting [5], 153 % of control [survivor count not shown].
Regarding `O=[N+]([O-])C/C(=N\Nc1ccc([N+](=O)[O-])cc1[N+](=O)[O-])c1ccccc1`, the T/C is 105 % of control (dose: 50.0 mg/kg/injection, schedule: Q01DX001 (ip), vehicle: saline with Tween-80); 100 % of control (dose: 100.0 mg/kg/injection, schedule: Q01DX001 (ip), vehicle: saline with Tween-80); 100 % of control (dose: 200.0 mg/kg/injection, schedule: Q01DX001 (ip), vehicle: saline with Tween-80).
